The list shows a part of the results. Values are raw readings; no control value is given beside them.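 Primary screen: polymyxin B was added at a level permeabilizing Salmonella outer membranes while sparing inner membranes. DMSO wells, both with and without polymyxin B, established maximum growth. Plate-to-plate variation meant each plate was ranked on its own, and the lowest-OD600 compounds were selected as hits.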
Test system: Salmonella enterica serovar Typhimurium SL1344
Assay: bacterial growth OD600 after 18 h with compound and polymyxin B; higher = more bacterial growth (less inhibition)
Details: 50 µM, Mueller-Hinton broth

Row | SMILES | bacterial growth OD600 (polymyxin B 0.75 µg/mL) | bacterial growth OD600 (polymyxin B 1 µg/mL)
1 | Cc1n[nH]c(C)c1CN(C)c1nc2nonc2nc1N(C)C | 0.792 | –
2 | NC(=O)N1CCCC(C(=O)NCc2cccnc2Oc2ccccc2)C1 (stereo unspecified) | 0.979 | –
3 | O=C(NCC1(O)CCCCC1)c1ccc2nc(Cc3ccccc3F)oc2c1 | 0.763 | –
4 | O=C(NCc1cnc2ccccn12)C1CCC(=O)N(CCc2cccc(F)c2)C1 (stereo unspecified) | – | 0.942
5 | CCOc1ccc(CN2CCC(O)(Cc3cc(-c4ccccc4)no3)CC2)cc1 | – | 0.911
6 | COc1cc(=O)n2c(c1C(=O)N1CCc3ccccc3C1)CCN(Cc1ccc(F)c(F)c1)CC2 | 0.764 | –
7 | COc1ccccc1-n1cc(CN2CCOc3ccc(CN4CCN(CCO)CC4)cc3C2)cn1 | 0.787 | –
8 | COc1ccc(CC(=O)N2CCC(C3(C)NC(=O)N(Cc4ccsc4)C3=O)CC2)cc1OC (stereo unspecified) | 0.842 | –
9 | CN(C(=O)c1cc2ccccc2oc1=O)C1CCCN(CCCc2ccccc2)C1 (stereo unspecified) | – | 1.2
10 | O=C(Nc1cccc(-c2cccc(Cl)c2)c1)C1CCN(C(=O)c2cnccn2)CC1 | – | 0.596
11 | Cc1nn(C)cc1CNC(=O)c1ccc(OC2CCN(S(=O)(=O)N(C)C)CC2)cc1 | – | 1.26
12 | O=C(CCC1CCCCC1)N1CCOc2ccc(CN3CCC(Oc4cccnc4)CC3)cc2C1 | 0.637 | –
13 | CN(C)C(=O)N1CCC(C(=O)N2CCCC(C(=O)c3cccc4ccccc34)C2)CC1 (stereo unspecified) | – | 0.762
14 | Cc1nc2ccccc2n1Cc1cc(C(=O)NCCc2cccnc2)no1 | – | 1.06
15 | CCN1C(=O)CC(CC(=O)N(C)CC2CCCCO2)(c2cccc(C(F)(F)F)c2)C1=O (stereo unspecified) | 0.941 | –
16 | Cc1nonc1CN(C)C(=O)c1cc(Cl)ccc1OC1CCN(C2CCCC2)CC1 | – | 1.05

Row | SMILES | bacterial growth OD600 (polymyxin B 0.75 µg/mL) | bacterial growth OD600 (polymyxin B 1 µg/mL)
17 | O=C(NC1CCCCC1)c1cn(C2CC2)cc(C(=O)NC(c2ccccn2)C(F)(F)F)c1=O (stereo unspecified) | 0.005 | –
18 | O=C(NCCc1ccccc1)c1ccc(OC2CCN(C(=O)Cn3cncn3)CC2)cc1 | – | 1.08
19 | Cc1cc2ncn(Cc3cc(C(=O)N4CCSCC4)n[nH]3)c2cc1C | – | 0.83
20 | COc1cccc(CNC(=O)C2CCN(c3nc(C)c4ccc(S(C)(=O)=O)cc4n3)CC2)c1OC | 0.896 | –
21 | O=C(c1ccc(OC2CCN(Cc3cc4ccccc4[nH]3)CC2)cc1)N1CCCC1 | – | 1.18
22 | CC1CCN(C(=O)CC(c2ccc(O)cc2)c2cccc(O)c2)CC1 (stereo unspecified) | – | 0.828
23 | Cc1nn(C)cc1CN1CCOc2ccc(C3=Cc4ccccc4C3)cc2C1 | 0.003 | –
24 | O=C(NCC1CCCN(C(=O)NCCc2ccccc2)C1)c1cccnc1 (stereo unspecified) | 0.844 | –
25 | CC1(C)Cc2nc(N3CCOCC3)ncc2C(NC(=O)Cc2cccs2)C1 (stereo unspecified) | 0.822 | –
26 | COCC1CCCN(C(=O)c2cc(COc3cc(C)ccc3C)on2)C1 (stereo unspecified) | 0.233 | –
27 | CC(C)CNC(=O)c1coc(COc2cccc3cccnc23)n1 | 0.796 | –
28 | CN(CCc1ccccn1)c1ncccc1CNC(=O)c1coc2c1C(=O)CCC2 | 0.818 | –
29 | COc1cccc(CN2C(=O)NC(C)(C3CCN(C(=O)c4cccnc4SC)CC3)C2=O)c1OC (stereo unspecified) | 0.827 | –
30 | CO[C@H]1[C@H](NC(=O)Cc2cccs2)c2ccccc2C12CCN(Cc1ccc(C)cc1)CC2 | 0.724 | –
31 | O=C(c1ccc2oc(Cc3ccccc3)nc2c1)N1CCCCCCC1 | – | 0.662

One compound at a time, from the list above.
CO[C@H]1[C@H](NC(=O)Cc2cccs2)c2ccccc2C12CCN(Cc1ccc(C)cc1)CC2 is listed with bacterial growth OD600 (polymyxin B 0.75 µg/mL): 0.724
CN(CCc1ccccn1)c1ncccc1CNC(=O)c1coc2c1C(=O)CCC2 is listed with bacterial growth OD600 (polymyxin B 0.75 µg/mL): 0.818

— the supplement of paper PMC12889115
